Source: patent US20140038203A1, “METHODS FOR DETECTING OR PREDICTING KIDNEY DISEASE” (MUSC FOUNDATION FOR RESEARCH DEVELOPMENT, priority 2012, published 2014)

How the values were obtained:
[1] = RRT study: LC-MS/MS urinary proteomics, AKI after cardiac surgery, RRT vs No RRT; design: species or system human; conditions: for Mean No RRT / Mean RRT: urine; for Mean No RRT: AKI patients who did not require RRT (n=6); for Mean RRT: AKI patients who required RRT (n=6)
[2] = Urinary angiotensinogen ELISA corrected for urine creatinine (uAnCR), AKI after cardiac surgery; design: species or system human
[3] = Candidate marker selection across the three proteomic studies (FIG. 8); conditions: inventors' proteomic studies
[4] = RRT vs No RRT, positive = elevated in RRT group
[5] = direction of urinary abundance, patients who did vs did not require RRT/dialysis
[6] = patients who did vs did not require RRT/dialysis, read with the Up or Down column
[7] = direction of differential abundance, patients who did vs did not require RRT/dialysis
[8] = patients who did vs did not require RRT/dialysis

B1: Angiotensinogen: urinary protein biomarker, Uniprot P01019; uAnCR = urine angiotensinogen-to-creatinine ratio (protein)
chain: MRKRAPQSEMAPAGVSLRATILCCLLAWAGLAAGDRVYIHIPFHLVIHNESTCEQLAKANAGKPKDPTFIPAPIQAKTSPVDEKALQDQLVLVAAKLDTEDKLRAAMVGMLANFLGFRIYGMHSELWGVVHGATVLSPTAVFGTLASLYLGALDHTADRLQAILGVPWKDKNCTSRLDAHKVLSALQAVAQGLLVAQGRADSQAQLLLSTVVGVFTAPGLHLKQPFVQGLALYTPVVLPRSLDFTELDVAAEKIDRFMQAVTGWKTGCSLMGASVDSTLAFNTYVHFQGKMKGFSLLAEPQEFWVDNSTSVSVPMLSGMGTFQHWSDIQDNFSVTQVPFTESACLLLIQPHYASDLDKVEGLTFQQNSLNWMKKLSPRTIHLTMPQLVLQGSYDLQDLLAQAELPAILHTELNLQKLSNDRIRVGEVLNSIFFELEADEREPTESTQQLNKPEVLEVTLNRPFLFAVYDQSATALHFLGRVANPLSTA
Mean Fold Change [1, 4]: 9.674
Up or Down [1, 5]: Up
Mean Fold Change [1, 6]: 29.02
Mean No RRT [1]: 1.69 normalized spectral counts
Mean RRT [1]: 16.33 normalized spectral counts
uAnCr (median) ([2]; maximum AKIN Stage 1, AKI of any stage at sample collection): 22.6 ng/mg
uAnCr (median) ([2]; maximum AKIN Stage 1, AKIN Stage 1 at sample collection): 22.6 ng/mg
uAnCr (median) ([2]; maximum AKIN Stage 2, AKI of any stage at sample collection): 34.1 ng/mg
uAnCr (median) ([2]; maximum AKIN Stage 2, AKIN Stage 1 at sample collection): 35.3 ng/mg
uAnCr (median) ([2]; maximum AKIN Stage 3, AKI of any stage at sample collection): 58.8 ng/mg
uAnCr (median) ([2]; maximum AKIN Stage 3, AKIN Stage 1 at sample collection): 77.0 ng/mg

B2: Secreted Ly-6/uPAR-related protein 1: urinary protein, Uniprot P55000 (protein, UniProt P55000 23-103, looked up)
Secreted Ly-6/uPAR-related …: LKCYTCKEPMTSASCRTITRCKPEDTACMTTLVTVEAEYPFNQSPVVTRSCSSSCVATDPDSIGAAHLIFCCFRDLCNSEL
Mean Fold Change [1, 4]: −1.414
Up or Down [1, 5]: Down
Mean Fold Change [1, 6]: 4.241
Mean No RRT [1]: 4.49 normalized spectral counts
Mean RRT [1]: 3.18 normalized spectral counts
change of the protein in urine in AKI [3]: decrease

B3: CD59 glycoprotein: urinary protein, binds and neutralizes the membrane attack complex (protein, UniProt P13987 26-102, looked up)
CD59 glycoprotein: LQCYNCPNPTADCKTAVNCSSDFDACLITKAGLQVYNKCWKFEHCNFNDVTTRLRENELTYYCCKKDLCNFNEQLEN
Up or Down [1, 7]: Down
Mean Fold Change [1, 8]: 1.699
change of the protein in urine in AKI [3]: decrease

B4: Neutrophil gelatinase-associated lipocalin (protein, UniProt P80188 21-198, looked up)
Neutrophil …: QDSTSDLIPAPPLSKVPLQQNFQDNQFQGKWYVVGLAGNAILREDKDPQKMYATIYELKEDKSYNVTSVLFRKKKCDYWIRTFVPGCQPGEFTLGNIKSYPGLTSYLVRVVSTNYNQHAMVFFKKVSQNREYFKITLYGRTKELTSELKENFIRFSKSLGLPENHIVFPVPIDQCIDG
Up or Down [1, 5]: Up

B5: Resistin (protein, UniProt Q9HD89 19-108, looked up)
Resistin: KTLCSMEEAINERIQEVAGSLIFRAISSIGLECQSVTSRGDLATCPRGFAVTGCTCGSACGSWDVRAETTCHCQCAGMDWTGARCCRVQP
Up or Down [1, 7]: Down
Mean Fold Change [1, 8]: 1.3332

B6: Plasma serine protease inhibitor (protein, UniProt P05154 26-406, looked up)
Plasma serine protease …: EMKKRVEDLHVGATVAPSSRRDFTFDLYRALASAAPSQSIFFSPVSISMSLAMLSLGAGSSTKMQILEGLGLNLQKSSEKELHRGFQQLLQELNQPRDGFQLSLGNALFTDLVVDLQDTFVSAMKTLYLADTFPTNFRDSAGAMKQINDYVAKQTKGKIVDLLKNLDSNAVVIMVNYIFFKAKWETSFNHKGTQEQDFYVTSETVVRVPMMSREDQYHYLLDRNLSCRVVGVPYQGNATALFILPSEGKMQQVENGLSEKTLRKWLKMFKKRQLELYLPKFSIEGSYQLEKVLPSLGISNVFTSHADLSGISNHSNIQVSEMVHKAVVEVDESGTRAAAATGTIFTFRSARLNSQRLVFNRPFLMFIVDNNILFLGKVNRP
Up or Down [1, 7]: Down
Mean Fold Change [1, 8]: 1.536

B7: Vitelline membrane outer layer protein 1 homolog (protein, UniProt Q7Z5L0 25-202, looked up)
Vitelline membrane outer …: QTDGRNGYTAVIEVTSGGPWGDWAWPEMCPDGFFASGFSLKVEPPQGIPGDDTALNGIRLHCARGNVLGNTHVVESQSGSWGEWSEPLWCRGGAYLVAFSLRVEAPTTLGDNTAANNVRFRCSDGEELQGPGLSWGDFGDWSDHCPKGACGLQTKIQGPRGLGDDTALNDARLFCCRS
Up or Down [1, 7]: Down
Mean Fold Change [1, 8]: 1.4267
